# The other results are listed elsewhere or left out. The main result of the screen is listed elsewhere. These columns were measured beside it and carry no call. The list favours compounds with an active or inconclusive main result. Words in brackets tell the shape of the fitted curve; partial curves, single points and poor fits give uncertain potencies.
# Experiment: qHTS Assay for Lipid Storage Modulators in Drosophila S3 Cells;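 as to cell number change: cells counted by Cell Tracker Red CMTPX staining in the red channel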
# Settings: BODIPY lipid droplet fluorescence, 18-24 h; for cell number change: measured here: cell count max response, cells fed with added oleic acid
# Outline: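 Drosophila S3 cells loaded with oleic acid (400 uM, as added) and compounds at several concentrations; lipid droplets imaged by 488-nm laser-scanning cytometry, 500–530 nm intensity and object ratio to cell channel. Percent activity normalized to 20 uM Triacsin C.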
# [1] = measured here: lipid fluorescence (Fed channel) AC50, cells fed with added oleic acid
# [2] = measured here: cell number channel AC50, cells fed with added oleic acid
Structure (SMILES),cell number change,AC50 [1],AC50 [2]
Cc1ccc(C2(C)NC(=O)N(CC(=O)NNC(=O)c3ccccc3)C2=O)cc1 (configuration not stated),16.8%,"0.731 µM [rising, full curve]",
O=C(NCCOc1ccc(F)cc1)C1CCC(=O)N(CCc2ccccn2)C1 (configuration not stated),1.49%,"6.51 µM [falling, single point]",
N#C/C(=C\c1ccco1)C(=O)Nn1cnnc1,120%,,"14.6 µM [rising, partial curve]"
Cc1cccnc1NC(=O)c1ccc(Cl)c(S(=O)(=O)N2CCCCC2)c1,,"0.00461 µM [rising, full curve, poor fit]","0.0259 µM [rising, full curve, poor fit]"
O=C(NCc1ccccn1)C1CCN(S(=O)(=O)c2ccccc2C(F)(F)F)CC1,2.64%,"0.103 µM [rising, full curve, poor fit]",
COc1cc2c(cc1OC)CN(c1ccc(C(F)(F)F)cn1)CC2,-1.59%,"0.651 µM [falling, partial curve, poor fit]",
C/C(=N/NC(=O)c1cc2ccccc2cc1O)C1C(=O)c2ccccc2C1=O,14.8%,"7.31 µM [falling, partial curve]",
Cc1ccc(S(=O)(=O)N(C)C)cc1NC(=O)CN1CCN(Cc2ccccc2)CC1,-13.3%,,"4.11 µM [falling, single point]"
COc1ccc(CNC(=O)COC(=O)CCCOc2ccc(Cl)cc2Cl)cc1,11.2%,,"0.58 µM [rising, single point]"
CN(C)/C=C/c1c([N+](=O)[O-])c2ccc(O)cc2n1-c1ccccc1,-39.7%,"18.4 µM [falling, single point]","29.1 µM [falling, single point]"
Cn1c(=O)c2c(nc(CN3CCCCC3)n2CCc2ccccc2)n(C)c1=O,14.5%,,
Cc1ccc(CNC(=O)C(=O)NCCC2CCCCN2S(=O)(=O)c2ccccc2)cc1 (configuration not stated),-35.2%,"29.1 µM [falling, partial curve, poor fit]",
COC(=O)c1sc(N2C(=O)C(=O)/C(=C(/O)c3ccccc3)C2c2ccco2)nc1C (configuration not stated),-7.84%,"0.103 µM [falling, full curve, poor fit]",
COC(=O)c1cn(C(=O)/C=C/c2ccc(OC)c(OC)c2)c2ccccc12,89.2%,,"29.1 µM [rising, single point]"
CCCn1c(=O)c2c(c3ccccc31)OC(C)C(=O)N2 (configuration not stated),,,"2.31 µM [rising, partial curve]"
CCOC(=O)C1CCCN(S(=O)(=O)Cc2ccc(Cl)cc2)C1 (configuration not stated),-27.9%,,"0.0731 µM [falling, full curve, poor fit]"
CC1CN(CC(O)COc2ccccc2C(C)(C)C)CC(C)O1 (configuration not stated),,,"6.51 µM [falling, single point]"
CC(C)Oc1ccc(CNC2CCOC(C)(C)C2)cc1 (configuration not stated),-1.12%,"20.6 µM [falling, single point]",
CN1CN(C)C(c2ccncc2)=C1c1ccncc1,-9.87%,,
CC1CCN(c2c(NCC3CCC(C(=O)NCc4ccccc4Cl)CC3)c(=O)c2=O)CC1 (configuration not stated),38.5%,"1.64 µM [falling, partial curve]","29.1 µM [rising, single point]"
O=C(NCCN1C(=O)S/C(=C/c2cccnc2)C1=O)c1cccs1,,"2.59 µM [falling, full curve]",
CCOc1ccc(-c2cn(-c3ccc(OC)cc3)c(SC)n2)cc1,-43.3%,"16.4 µM [falling, partial curve]","4.11 µM [rising, single point]"
c1cc(Nc2ncnc3sc4c(c23)CCC4)ccn1,3.5%,,"3.26 µM [rising, partial curve]"
Cn1c(SCC(=O)O)nc2ccccc2c1=O,-6.14%,"2.31 µM [falling, partial curve, poor fit]",
COc1ccc(-n2c(SCC(=O)Nc3ccc(C(=O)O)cc3)nnc2-c2ccccc2)cc1OC,21.1%,"18.4 µM [rising, partial curve, poor fit]",
COc1ccc(Nc2nc(N)nc(CSCCO)n2)cc1,0.799%,"0.259 µM [falling, single point]",
Cc1ccn2c(/C=N/OCc3cccc(F)c3)c(-c3ccc(Cl)cc3)nc2c1,-20.1%,"8.2 µM [falling, partial curve]",
COc1ccc(/C=C2\SC(=S)N(CC(=O)NC3C=CS(=O)(=O)C3)C2=O)cc1 (configuration not stated),-30.4%,"29.1 µM [falling, single point]","0.164 µM [falling, full curve, poor fit]"
O=C(N1CCOCC1)C12CC3CC(C1)CC(c1ccccc1)(C3)C2,29.4%,"18.4 µM [rising, single point]",

# Given with tabs: entries from further up.
Structure (SMILES)	cell number change	AC50 [1]	AC50 [2]
Cc1cccnc1NC(=O)c1ccc(Cl)c(S(=O)(=O)N2CCCCC2)c1		0.00461 µM [rising, full curve, poor fit]	0.0259 µM [rising, full curve, poor fit]
O=C(NCc1ccccn1)C1CCN(S(=O)(=O)c2ccccc2C(F)(F)F)CC1	2.64%	0.103 µM [rising, full curve, poor fit]	
COc1cc2c(cc1OC)CN(c1ccc(C(F)(F)F)cn1)CC2	-1.59%	0.651 µM [falling, partial curve, poor fit]	
C/C(=N/NC(=O)c1cc2ccccc2cc1O)C1C(=O)c2ccccc2C1=O	14.8%	7.31 µM [falling, partial curve]	
Cc1ccc(S(=O)(=O)N(C)C)cc1NC(=O)CN1CCN(Cc2ccccc2)CC1	-13.3%		4.11 µM [falling, single point]
COc1ccc(CNC(=O)COC(=O)CCCOc2ccc(Cl)cc2Cl)cc1	11.2%		0.58 µM [rising, single point]

# Source: PubChem BioAssay AID2685 (National Center for Advancing Translational Sciences (NCATS), 2010)
